Data reported in PubChem BioAssay AID493014 (National Center for Advancing Translational Sciences (NCATS), 2011).
The campaign covered roughly 340,000 compounds. About 170 (0.05%) were called active. Inconclusive results, whose numbers are uncertain, are shown with a selection of clear calls. Calls come from the whole dose curve; as a rule, active = well fitted inhibition curve with a large enough effect in the signal ratio, with a control signal flat (not every such curve was filed as active); inconclusive = small, poorly fitted or top-dose-only effect, or effect the other way, or a change in a side signal; inactive = flat fitted curve, though single readings scatter; the % refers to the signal ratio. A potency beside an inconclusive call is a rough fit, not a confirmed value.

experiment: qHTS Assay to Find Inhibitors of Chronic Active B-Cell Receptor Signaling; conditions: ABC-DLBCL IkBa-CBG/CBR reporter, luminescence ratio (green luciferase fused to IkBa over red control in TMD8 lymphoma cells), 4 h; activity change, negative = inhibition: at 46.1 µM (top of the series) unless noted;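 for activity change, negative = inhibition: plate controls were basal doxycycline-induced cells for no effect and cells given 10 µM MG132 for full effect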
How it was run: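 TMD8 human ABC-DLBCL cells with doxycycline-inducible IκBα–green luciferase fusion and unfused red luciferase, in 0.5% FBS medium; compounds up to 46 uM, 4 h at 37C. Green/red luminescence ratio, filter-overlap corrected, fitted to concentration-response curves.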
Potency is the fitted concentration of half-maximal effect.

SMILES	activity change, negative = inhibition	Potency
O=C1CCC(C(=O)Nc2ccccc2N2CCOCC2)=NN1	inconclusive: 9.41%	–
CC(=O)Nc1ccc(NC(=O)CN2CCN(c3cccc(C(F)(F)F)c3)CC2)cc1	inactive	–
CCc1ccccc1NC(=O)C1CCCN1S(=O)(=O)c1ccc(-c2ccc(=O)[nH]n2)s1 (configuration not stated)	inconclusive: 6.16%	–
O=C(COc1cccc2cccnc12)Nc1cccc(S(=O)(=O)N2CCCC2)c1	inconclusive: -0.694%	–
O=C(NCCOc1ccccc1Cl)c1ncn[nH]1	inconclusive: 19.8%	–
CC(C(=O)N1CCN(c2ccccc2)CC1)c1ccc([N+](=O)[O-])cc1 (configuration not stated)	inactive	–
Cc1cc(NCCCN2CCOCC2)n2nc(C)c(-c3ccc(F)cc3)c2n1	inconclusive: -0.283%	–
Cc1cc(C)c(C#N)c(Sc2ccccc2N)n1	inconclusive: 12.7%	–
CC(OC(=O)CCN1C(=O)C2CC=CCC2C1=O)C(=O)c1ccc(F)cc1 (configuration not stated)	inconclusive: 4.49%	–
Cc1c(C(=O)NC(Cc2ccccc2)c2nc3ccccc3[nH]2)cccc1[N+](=O)[O-] (configuration not stated)	inconclusive: -4.06%	–
CCOc1ccccc1OCCC(=O)Nc1ccc2c(c1)OCO2	inconclusive: -5.4%	–
O=c1oc2ccccc2cc1NCc1ccccc1O	–	inconclusive: 14.6 µM [falling, partial curve]
O=C1NC(=S)N/C1=C/c1ccc2ccccc2c1	inconclusive: 4.49%	–
COc1cc(C(=O)NNC(=O)C2CC=CCC2C(=O)O)cc(OC)c1OC (configuration not stated)	–	inconclusive: 9.2 µM [falling, partial curve]
O=C(NCC1CCCO1)c1cc(-c2ccccc2)on1 (configuration not stated)	–	inconclusive: 3.26 µM [falling, single point]
N#Cc1ccc2c(c1)C[C@]1(CCCCN3C(=O)c4ccccc4C3=O)Oc3cc(-c4ccccc4)oc(=O)c3[C@H]2O1	–	inconclusive: 1.78 µM [rising, partial curve, poor fit]
CCOC(=O)N1CCC(NC(=O)CC(NS(=O)(=O)c2ccc(Cl)cc2)c2ccco2)CC1 (configuration not stated)	inconclusive: 10.9%	–
CCSc1nc2c(c(=O)[nH]1)C(C(C)C)C(C#N)=C(N)O2 (configuration not stated)	–	inconclusive: 29.1 µM [rising, single point]
O=C(COC(=O)CNC(=O)c1ccc([N+](=O)[O-])o1)Nc1ncc(C(F)(F)F)cc1Cl	inactive	–
Cc1ccc(NC(=O)Cn2cc(C(=O)c3ccco3)c3ccccc32)c(C)c1	inconclusive: 12.2%	–
Cc1cc(O)cc(O)c1C=NCc1ccco1	inactive	–

SMILES	activity change, negative = inhibition	Potency
O=C(O)c1ccc(C(=O)Nc2ccc(F)cc2)cc1	–	inconclusive: 23.1 µM [falling, partial curve]
O=C(Nc1cccc(Cl)c1)c1cc(S(=O)(=O)N2CCCc3ccccc32)ccc1F	inconclusive: 2.94%	–
COc1ccc(C2c3c(ncn(CCN4CCOCC4)c3=N)Oc3ccc4ccccc4c32)cc1 (configuration not stated)	inconclusive: -1.06%	–
NS(=O)(=O)c1ccc(NC(=O)CSc2ncnc3ccccc23)cc1	–	inconclusive: 14.1 µM [falling, partial curve, poor fit]
O=C(NCCSCc1c(F)cccc1Cl)c1ccco1	inactive	–
O=C(CSc1ccccc1C(=O)O)c1ccc(Cl)cc1	inconclusive: 13.5%	–
Cc1cccc(NC(=O)c2cc3c(=O)n4ccccc4nc3n(CC(C)C)c2=N)c1	inactive	–
Cc1ccccc1C(=O)Nc1nc(=S)ss1	inactive	–
COc1ccc(CCn2c(N)c(S(=O)(=O)c3cccs3)c3nc4ccccc4nc32)cc1OC	inconclusive: 0.117%	–
O=C(OCC(=O)N1CCCCCC1)c1ccc(Cl)nc1	inactive	–
C=CCS(=O)(=O)N1CCCC(C(=O)c2cccc(Cl)c2)C1 (configuration not stated)	inconclusive: 13.3%	–
COC(=O)c1ccc(C23CC4(C2)[C@H](CN(Cc2ccc(-c5ccccc5)cc2)[C@@H]4c2ccccc2)C3c2ccc(Cl)nc2)cc1 (some centres not stated)	inconclusive: -0.682%	–
O=C(O)Cn1c(=O)c2c3c(sc2n(Cc2ccc(F)cc2)c1=O)CCCC3	inconclusive: 3.55%	–
O=c1[nH]c2cc3c(cc2cc1C(c1nnnn1Cc1ccccc1)N1CCCCCC1)OCCO3 (configuration not stated)	inactive	–
CC(C)NS(=O)(=O)c1ccc(NC(=O)CCc2ccccc2)cc1	inconclusive: -1.5%	–
C/C=C\C=C/C(=O)Nc1cccc(C2=NOC3(C2)C[C@@H](C(N)=O)N(C(=O)/C=C/C=C\C)C3)c1 (some centres not stated)	inactive	–
C=C(C)Cn1c(SCC(=O)N/N=C/c2cccc(O)c2)nc2ccccc2c1=O	inactive	–
CCn1cc(/C=C(\NC(=O)c2ccccc2F)C(=O)N2CCOCC2)c2ccccc21	inactive	–
COc1cc2c(cc1OC)C(c1ccccc1N)=NCC2	inconclusive: -0.352%	–
COc1ccc(NC(=S)Nc2ccc(C)c(Cl)c2)cc1OC	inconclusive: 4.78%	–
Cc1ccc(CNC(=O)c2cccc(NC(=O)N3CCSc4ncccc43)c2)cc1	inactive	–

SMILES	activity change, negative = inhibition	Potency
Cc1ccc(S(=O)(=O)C(CNC(=O)COc2ccc(Cl)cc2)c2ccco2)cc1 (configuration not stated)	inactive	–
Cc1ccc(NC(=O)N2CCC(C(=O)NCc3ccccc3)CC2)cc1	inconclusive: 14.1%	–
N#CC1=C(N)C(C#N)(C#N)C(c2ccncc2)C2CN(C(=O)OCc3ccccc3)CC=C12 (configuration not stated)	–	inconclusive: 20.6 µM [falling, single point]
Cc1cccc(Nc2nc(N)nc(CCl)n2)c1C	–	inconclusive: 22.4 µM [falling, single point]
Cc1cccc(Cl)c1NC(=O)N1CCCN(c2nc3ccc(Cl)cc3s2)CC1	inconclusive: -0.991%	–
Cc1ccc(SCc2cc(=O)[nH]c(Nc3nc(C)c4cccc(C)c4n3)n2)cc1	inactive	–
COCC(=O)n1nc(-c2ccccc2)nc1NCc1ccccc1	–	inconclusive: 17.8 µM [falling, single point]
Cc1ccc(Cl)cc1-n1ncc2c(NCCC3=CCCCC3)ncnc21	inconclusive: -6.86%	–
CCn1c(C)cc(/C=C2/NC(=O)N(CC(=O)Nc3cccc(C)c3)C2=O)c1C	inconclusive: -9.9%	–
CCN(CC)C(=O)[C@H]1CC(CC(=O)NCCN2CCOCC2)C(=O)N2CCc3c([nH]c4ccccc34)[C@]12C (some centres not stated)	inactive	–
C=CCOc1ccc(/C=C2\SC(N)=NC2=O)cc1OC	–	inconclusive: 7.08 µM [falling, partial curve, poor fit]
COc1ccc2c(CC(=O)OCc3nc4ccsc4c(=O)[nH]3)coc2c1	inconclusive: 8.68%	–
Cc1cc(C)n(-c2nc(C)nc3c2cnn3-c2ccccc2)n1	inconclusive: 0.877%	–
COc1ccc(Nc2nnc(-c3ccc(C(=O)NCCO)cc3)c3ccccc23)cc1	–	inconclusive: 22.4 µM [falling, single point]
CC1=C(C#N)c2nc(N)c(C#N)c(C)c2/C1=C\c1ccc(OCC(=O)O)c(Cl)c1	inactive	–
CC(=O)NC(CC(=O)OCC(=O)c1cc(C)ccc1C)c1ccccc1 (configuration not stated)	inconclusive: -0.0257%	–
Cc1nn(-c2ccccc2)c(C)c1/C=C/C(=O)OCC(=O)Nc1ccc(S(N)(=O)=O)cc1	inactive	–
O=C(CSc1nnc(SCc2ccccc2Cl)s1)N/N=C/c1ccc(C(=O)O)cc1	inconclusive: -27.4%	–
CCc1nn(-c2ccccc2)c(=S)c2ccccc12	inconclusive: 9.74%	–
Cc1nnc(SCC(=O)Nc2nccs2)o1	–	inconclusive: 35.5 µM [falling, single point]
O=c1oc(-c2ccccc2)nc2sc3c(c12)CCCC3	inconclusive: 356%	–

SMILES	activity change, negative = inhibition	Potency
CCN1C(Nc2ccccc2)=NC[C@@H]1CC(C)C	inactive	–
CCC(C)N(C(=O)Cn1nnc(-c2ccc(Cl)cc2)n1)C1CCS(=O)(=O)C1 (configuration not stated)	–	inconclusive: 4.11 µM [falling, partial curve, poor fit]
COc1ccccc1N1C(=O)C2C(C(=O)c3ccccc3)=NN(c3ccc(C)cc3)C2C1=O (configuration not stated)	inactive	–
O=C(CCN1CCCCO1)N1CCCC(Nc2ccc(F)c(F)c2)C1 (configuration not stated)	inconclusive: 4.51%	–
NC(=S)Cc1ccc(Cl)cc1Cl	inactive	–
Cc1nc2c(cnn2-c2ccccc2)c(=O)[nH]1	inactive	–
CCOC(=O)CSc1nnc(-c2cccc(Br)c2)o1	inconclusive: 1.34%	–
Cc1cc(C)n(CC(O)COc2ccc(Cl)cc2Cl)n1 (configuration not stated)	inactive	–
CC(C(=O)Nc1nc2ccccc2s1)n1cc([N+](=O)[O-])cn1 (configuration not stated)	–	inconclusive: 8.91 µM [rising, partial curve, poor fit]
CCCCNC(=O)C(=O)N/N=C/c1cccc(Br)c1	inactive	–
CNC(=S)NNC(=O)c1sccc1C	–	inconclusive: 20.6 µM [falling, partial curve]
COc1cccc(/C=C/c2ccccn2)c1O	–	inconclusive: 35.5 µM [falling, single point]
Fc1ccc(-n2cc(CNCCc3cccnc3)c(-c3ccccc3Cl)n2)cc1	–	inconclusive: 35.5 µM [falling, single point]
CCC(C)NC(=O)CSc1nnc(-c2c[nH]c3ccccc23)o1 (configuration not stated)	inactive	–
CCOC(=O)c1cc(-c2ccc(OC)cc2)n(CCC(=O)Nc2cccc(C(C)=O)c2)c1C	inconclusive: 10.9%	–
COc1ccc(NC(=O)C2=CN3CCS(=O)(=O)N=C3C=C2)c(OC)c1	inconclusive: 4.05%	–
COc1ccc(CNS(=O)(=O)c2ccc(F)c(C(=O)Nc3c(C)cc(C)cc3C)c2)cc1	inactive	–
CCOc1ccc(CSc2nc(C)cc(COC)c2C#N)cc1OCC	–	inconclusive: 35.5 µM [falling, single point]
O=C(COc1ccccc1)NCC(c1ccco1)N1CCN(c2ccc(F)cc2)CC1 (configuration not stated)	inconclusive: -10.6%	–

Part of the list above in order of number of heavy atoms, high to low.
SMILES	activity change, negative = inhibition	Potency
CCOC(=O)c1cc(-c2ccc(OC)cc2)n(CCC(=O)Nc2cccc(C(C)=O)c2)c1C	inconclusive: 10.9%	–
Cc1cc(C)n(CC(O)COc2ccc(Cl)cc2Cl)n1 (configuration not stated)	inactive	–
CCCCNC(=O)C(=O)N/N=C/c1cccc(Br)c1	inactive	–
CCN1C(Nc2ccccc2)=NC[C@@H]1CC(C)C	inactive	–
